The values that follow come from article PMC7862700.

The entries are a selection whose mix differs from that of the whole data set. For some assays here: At the low end of the ranking the order means little. The list shows a part of the results. For some assays here: Construct or isoform of the protein are uncertain.

The target in one test is T1, GABPA (UniProt Q06546).
T1 sequence: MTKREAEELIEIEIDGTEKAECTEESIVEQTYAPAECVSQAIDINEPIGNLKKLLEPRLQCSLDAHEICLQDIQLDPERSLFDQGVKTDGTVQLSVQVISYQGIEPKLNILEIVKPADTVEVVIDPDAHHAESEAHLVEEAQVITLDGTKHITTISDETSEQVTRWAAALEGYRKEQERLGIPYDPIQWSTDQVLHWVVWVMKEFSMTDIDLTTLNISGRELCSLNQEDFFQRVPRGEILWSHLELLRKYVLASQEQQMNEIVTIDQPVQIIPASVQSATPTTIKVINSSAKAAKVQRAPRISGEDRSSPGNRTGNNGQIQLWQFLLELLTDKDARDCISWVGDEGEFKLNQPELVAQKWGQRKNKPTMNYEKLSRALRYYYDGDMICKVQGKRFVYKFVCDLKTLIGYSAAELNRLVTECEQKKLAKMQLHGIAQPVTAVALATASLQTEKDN
As to the kind of experiment: DAPPL (digital affinity profiling via proximity ligation, sequencing). The note with it: 10 mM Tris-HCl pH 7.5, 50 mM NaCl, 1 mM DTT, 4% glycerol, room temperature, 30 min; GST-TFs on glutathione beads, 16-mer random dsDNA library, 0.1% …; high values mean tight binding; double strand, one strand shown; scale: fold enrichment (6-mer frequency, TF over GST control).
GACCAA: the binding signal was found to be 1.04.
Still for that read-out and setting: for AGCATA the value was 0.936; for ACTCAG, 0.944; for AACCGC, 1.1.
On the same count and under the same terms, next, CTGGTG: 1.01; GCCTGG: 0.989; TAGGCC: 1.02.
The same measure, in the same setting: for CAGATA the value was 0.933; for CTCGAG, 1.35; for CATTGG, 1.
Sequence GCGTCA had a binding signal of 0.967.
Take CCGAAC: the binding signal worked out at 1.29.
Sequence ATCACG displayed a binding signal of 0.984.
CGGAAG came in with a binding signal of 2.61.
The sequence TGCCGG yielded a binding signal of 0.998.
As to TTAATC, the binding signal turned out to be 1.2.
As to TCATCA, the binding signal worked out at 1.17.
Regarding TAAGGG, the binding signal was 0.98.
The sequence AAAGCT came in with a binding signal of 1.08.
In turn, GTTCCT had a binding signal of 1.64.
Still for that read-out and setting: next, GCATTA: 0.841.
Consider TGGCTG, for which the binding signal came out at 0.97.
Turning to ACCGGT, the binding signal turned out to be 0.872.
On the same count and under the same terms, for AAGATC the value was 1.08; for AGGCCC, 0.884.
Turning to CCAGCT, the binding signal worked out at 0.9.
GACTAT gave a binding signal of 0.906.
CTATAG had a binding signal of 1.11.
Sequence TCGCGT returned a binding signal of 0.976.
On the same count and under the same terms, next, CTGATG: 1.7; CGCACT: 1.28; CTACGG: 1.22.
The sequence CCACCG yielded a binding signal of 0.976.
TGGGAT: the binding signal came to 1.3.
The same measure, in the same setting: for AGTTGC the value was 0.952; for GATAAA, 0.92; for GAATCA, 0.967.
Same read-out and setting: for CCATCT the value was 1.32.
In the case of GCGTTG, the binding signal was 0.888.
For ACCGTT, the binding signal worked out at 1.02.

A further test deals with T2, ETS1 (UniProt P14921).
T2 sequence: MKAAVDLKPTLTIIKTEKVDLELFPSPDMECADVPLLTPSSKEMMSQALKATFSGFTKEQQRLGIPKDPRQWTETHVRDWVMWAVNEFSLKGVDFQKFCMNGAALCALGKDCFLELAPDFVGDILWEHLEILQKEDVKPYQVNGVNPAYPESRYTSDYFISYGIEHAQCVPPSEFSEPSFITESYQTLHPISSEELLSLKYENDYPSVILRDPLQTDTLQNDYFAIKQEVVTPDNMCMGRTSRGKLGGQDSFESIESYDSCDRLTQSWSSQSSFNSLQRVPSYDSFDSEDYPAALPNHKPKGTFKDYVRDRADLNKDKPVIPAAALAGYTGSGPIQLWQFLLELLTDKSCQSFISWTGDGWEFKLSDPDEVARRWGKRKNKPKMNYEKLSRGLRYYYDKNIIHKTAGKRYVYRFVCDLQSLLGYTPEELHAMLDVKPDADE
The description is as above. The note with it: 10 mM Tris-HCl pH 7.5, 50 mM NaCl, 1 mM DTT, 4% glycerol, room temperature, 30 min; GST-TFs on glutathione beads, 16-mer random dsDNA library, 0.1% …; high values mean tight binding; double strand, one strand shown; scale: fold enrichment (6-mer frequency, TF over GST control).
The sequence GACCAA came in with a binding signal of 1.02.
On to AGCATA, for which the binding signal turned out to be 0.898.
Consider ACTCAG, for which the binding signal worked out at 0.995.
In the case of AACCGC, the binding signal came out at 1.13.
Regarding CTGGTG, the binding signal turned out to be 0.998.
With GCCTGG, the binding signal came out at 0.968.
TAGGCC displayed a binding signal of 0.848.
Regarding CAGATA, the binding signal came out at 0.884.
The sequence CTCGAG gave a binding signal of 1.42.
The same measure, in the same setting: for CATTGG the value was 0.899.
On the same count and under the same terms, for GCGTCA the value was 0.894.
In turn, CCGAAC showed a binding signal of 1.33.
For ATCACG, the binding signal was 1.05.
Same read-out and setting: next, CGGAAG: 2.66; TGCCGG: 1.03.
Sequence TTAATC returned a binding signal of 1.23.
For TCATCA, the binding signal amounted to 1.13.
Consider TAAGGG, for which the binding signal is 0.982.
Sequence AAAGCT yielded a binding signal of 1.1.
Same read-out and setting: next, GTTCCT: 1.79.
GCATTA registered a binding signal of 0.865.
On the same count and under the same terms, next, TGGCTG: 1.1; ACCGGT: 0.937.
The sequence AAGATC returned a binding signal of 1.04.
For AGGCCC, the binding signal was 0.905.
For the sequence CCAGCT, the binding signal was 0.939.
The same measure, in the same setting: next, GACTAT: 0.926; CTATAG: 1.01.
TCGCGT registered a binding signal of 0.942.
The sequence CTGATG displayed a binding signal of 1.69.
The sequence CGCACT yielded a binding signal of 1.24.
CTACGG displayed a binding signal of 1.21.
CCACCG came in with a binding signal of 1.01.
Sequence TGGGAT returned a binding signal of 1.24.
AGTTGC registered a binding signal of 0.903.
Consider GATAAA, for which the binding signal was determined as 0.997.
For GAATCA, the binding signal worked out at 0.974.
In turn, CCATCT had a binding signal of 1.34.
GCGTTG registered a binding signal of 0.932.
Sequence ACCGTT showed a binding signal of 0.955.

Another test has as its target T3, SPDEF (UniProt O95238).
T3 sequence: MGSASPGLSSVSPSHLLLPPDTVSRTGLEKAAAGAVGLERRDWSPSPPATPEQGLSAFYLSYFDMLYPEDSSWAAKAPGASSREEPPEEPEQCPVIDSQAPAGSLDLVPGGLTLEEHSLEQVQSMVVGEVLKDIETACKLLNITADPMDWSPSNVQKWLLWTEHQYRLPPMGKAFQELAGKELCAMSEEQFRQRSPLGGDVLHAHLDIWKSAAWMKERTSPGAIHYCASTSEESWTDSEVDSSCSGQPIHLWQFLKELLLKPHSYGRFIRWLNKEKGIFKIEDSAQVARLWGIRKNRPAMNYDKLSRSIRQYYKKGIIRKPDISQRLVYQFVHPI
The test is described as above. To be noted: 10 mM Tris-HCl pH 7.5, 50 mM NaCl, 1 mM DTT, 4% glycerol, room temperature, 30 min; GST-TFs on glutathione beads, 16-mer random dsDNA library, 0.1% …; high values mean tight binding; double strand, one strand shown; scale: fold enrichment (6-mer frequency, TF over GST control).
In turn, GACCAA came in with a binding signal of 0.956.
Still for that read-out and setting: for AGCATA the value was 0.926; for ACTCAG, 0.964; for GCCTGG, 0.961.
The sequence TAGGCC registered a binding signal of 0.861.
As to CAGATA, the binding signal was determined as 0.862.
As to CTCGAG, the binding signal is 1.16.
In turn, CATTGG yielded a binding signal of 0.878.
Sequence GCGTCA came in with a binding signal of 0.905.
In the case of CCGAAC, the binding signal was found to be 1.28.
For the sequence ATCACG, the binding signal worked out at 1.07.
CGGAAG registered a binding signal of 3.02.
The sequence TAAGGG yielded a binding signal of 0.976.
AAAGCT registered a binding signal of 0.965.
As for GTTCCT, the binding signal worked out at 1.74.
Sequence GCATTA had a binding signal of 0.854.
As for TGGCTG, the binding signal was 1.01.
Same read-out and setting: for AGGCCC the value was 0.953; for CCAGCT, 0.851.
In turn, GACTAT gave a binding signal of 0.905.
The same measure, in the same setting: for CTATAG the value was 0.995; for TCGCGT, 0.891.
Same read-out and setting: next, CGCACT: 1.1; CCACCG: 0.931; TGGGAT: 1.17.
The same measure, in the same setting: next, AGTTGC: 0.957; GATAAA: 0.988; GAATCA: 0.907.
As for GCGTTG, the binding signal came to 0.909.
On the same count and under the same terms, next, ACCGTT: 1.01.
